Results published in US20260242756A1 (REPLIGEN, published 2026).
Where two headings read alike, the source gives them in different places.

B1: biotinylated ligand corresponding to SEQ ID NO: 23 (designed binder)
chain: MAQGTVDAKFDKELEEARAEIERLPNLTERQRRHFIEALRWDPSDSATLLADAKSWNDWQAPKGQAGQGGGSGLNDIFEAQKIEWHEHHHHHH
modifications: biotinylated with the Avitag system; the biotinylated residue is not stated
B2: biotinylated ligand corresponding to SEQ ID NO: 53 (designed binder)
chain: MGVDAKFDKELEEARAEIERLPNLTERQRRHFIEALRWDPSDSATLLADAKSWNDWQAPKGQAGQGAVDAKFDKELEEARAEIERLPNLTERQRRHFIEALRWDPSDSATLLADAKSWNDWQAPKGQAGQGGGSGLNDIFEAQKIEWHEHHHHHH
modifications: biotinylated with the Avitag system; the biotinylated residue is not stated

Assays:
[1] = target: T1, Vaccina Virus Capping Enzyme (VCE) (Vaccinia virus, UniProt P04298 1-844; P04318 1-287)
[2] = target: T1, Vaccina Virus Capping Enzyme (VCE); remark: listed apart in the source

| Binder | Kd [1] [nM] | Kd [2] [nM] |
| --- | --- | --- |
| B1 | 26 | – |
| B2 | – | 2 |
